No constants are given. Whether binding was seen depends on the method and setting. Some binding calls cover weakened binding; strength is not graded here.
B1: 9F02 (VHH)
VHH: EVQLVESGGGLVQAGGSLRLSCTASRRAFIGYAMGWFRQAPGKEREFVAAISWFAGDTTDYADSVKGRFTISRDNAKNTVYLQMNGLKPEDTAVYVCAASSARPMSGRSDEYHYWGQGTQVTVSS
B2: 9E10 (VHH)
VHH: QLQVVESGGGLVQAGGSLRLSCTTSGRAFIGYAMGWFRQAPGKEREFVAAISWFAGDTTDYANSVKGRFTISRDNAKNTVYLQMNSLKPEDTAVYVCAASSARPLSSRSDEYHYWGQGTQVTVSS
B3: 11C03 (VHH)
VHH: QLQVVESGGGLVQAGGSLRLSCAASERTFVAYPMGWFRQAPEKEREFVAGISWFAGATTDYADSVEGRFTISRDNAKNTAYLQMNNLKPEDTAVYYCAISHQLPGGRPGRDMDSYSYWGHGTQVTVSS
notes: also called 11C03 parental (VHH)

Amino acid sequences for entries named in this document (tags omitted). Residues count along the entry.
UniProt P02768, residues 211-403: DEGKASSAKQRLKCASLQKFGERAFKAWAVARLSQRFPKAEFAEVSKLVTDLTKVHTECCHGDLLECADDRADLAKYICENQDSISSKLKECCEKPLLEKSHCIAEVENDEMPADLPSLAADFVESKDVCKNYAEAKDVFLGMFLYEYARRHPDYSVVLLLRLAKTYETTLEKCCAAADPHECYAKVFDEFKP

target: isolated DII of serum albumin (UniProt P02768); test: DII binder column of the clone screening

Question: B1 was tested. Which binding did it give?
Answer: binds

Question: With B2 as the binder, how does the binding read?
Answer: binds

Question: For B3, which binding is on record?
Answer: binds

— US20250223342A1 (ARGENX, published 2025)
